Paper PMC7083940
No constants are given. Whether binding was seen depends on the method and setting. A result given as binding can be weak or reduced; the word gives no strength. Where a sequence is shown, tags or fusion partners need not be part of it.

By UniProt entry, the sequences of proteins in these tests, tags left out. Where a name states a change or a piece, a line headed by the entry shows the natural chain unless it says otherwise.
UniProt Q8NQL2: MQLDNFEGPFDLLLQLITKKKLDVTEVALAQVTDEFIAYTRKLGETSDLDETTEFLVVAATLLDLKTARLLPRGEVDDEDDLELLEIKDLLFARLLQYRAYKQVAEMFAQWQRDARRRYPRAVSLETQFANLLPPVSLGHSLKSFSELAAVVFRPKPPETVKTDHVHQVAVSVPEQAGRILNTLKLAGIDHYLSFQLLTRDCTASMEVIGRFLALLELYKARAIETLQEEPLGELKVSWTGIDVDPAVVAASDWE

molecular target: T1, SMC, bacterial two-hybrid fusion (Corynebacterium glutamicum) (UniProt Q8NNW5); test: two-hybrid; bacterial two-hybrid with adenylate cyclase fragments T18 and T25 in E. coli BTH101, 30 °C; blue-white screening and β-galactosidase assays; all C- and N-terminal combinations of hybrid proteins
T1 sequence: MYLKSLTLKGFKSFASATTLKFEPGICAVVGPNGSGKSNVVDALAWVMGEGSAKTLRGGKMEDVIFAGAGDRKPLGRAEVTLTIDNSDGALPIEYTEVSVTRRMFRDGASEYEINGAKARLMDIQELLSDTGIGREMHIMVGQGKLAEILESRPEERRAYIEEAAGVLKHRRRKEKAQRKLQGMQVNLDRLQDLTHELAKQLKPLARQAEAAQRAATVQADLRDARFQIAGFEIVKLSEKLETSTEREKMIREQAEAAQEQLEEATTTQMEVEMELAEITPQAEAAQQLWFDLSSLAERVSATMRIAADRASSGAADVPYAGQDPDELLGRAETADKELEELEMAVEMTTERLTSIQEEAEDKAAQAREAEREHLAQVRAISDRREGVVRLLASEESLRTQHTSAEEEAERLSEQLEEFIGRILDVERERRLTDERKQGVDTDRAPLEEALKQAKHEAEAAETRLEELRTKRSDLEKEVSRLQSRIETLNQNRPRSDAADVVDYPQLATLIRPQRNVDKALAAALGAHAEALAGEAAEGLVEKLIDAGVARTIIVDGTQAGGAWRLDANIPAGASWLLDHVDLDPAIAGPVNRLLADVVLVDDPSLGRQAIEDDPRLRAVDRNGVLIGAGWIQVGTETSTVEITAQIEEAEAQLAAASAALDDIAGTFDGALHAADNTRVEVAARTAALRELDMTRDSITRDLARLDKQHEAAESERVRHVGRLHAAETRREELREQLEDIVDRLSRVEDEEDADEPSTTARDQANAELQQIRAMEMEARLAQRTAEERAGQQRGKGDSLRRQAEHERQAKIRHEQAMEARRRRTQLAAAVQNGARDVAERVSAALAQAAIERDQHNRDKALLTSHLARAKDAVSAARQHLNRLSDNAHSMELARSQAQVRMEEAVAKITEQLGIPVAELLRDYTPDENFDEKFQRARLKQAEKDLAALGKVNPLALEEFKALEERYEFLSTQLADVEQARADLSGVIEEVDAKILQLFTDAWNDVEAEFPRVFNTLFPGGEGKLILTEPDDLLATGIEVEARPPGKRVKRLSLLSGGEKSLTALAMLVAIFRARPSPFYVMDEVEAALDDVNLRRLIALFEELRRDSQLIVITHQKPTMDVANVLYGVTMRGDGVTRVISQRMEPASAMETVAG

binding	Substance
no binding	ParB, bacterial two-hybrid fusion (Corynebacterium glutamicum)
binds	ScpA, bacterial two-hybrid fusion (from UniProt Q8NQL2)
binds	ScpB, bacterial two-hybrid fusion (Corynebacterium glutamicum)
